In doi:10.1101/2021.01.06.425598:
Substitutions are numbered along the chain they refer to. These are yes or no findings as the source states them, for the method shown. Binding seen in cells or lysates may run through a third protein. Some results given as binding are weak or reduced against the parent protein; the word gives no strength. Tags and fused reporters may be left off the sequences shown.

Protein sequences, listed by entry. Tags and fused reporters are not part of them. Lines headed by an entry give the natural chain unless they say otherwise; changes in a name come on top.
UniProt Q14974, whole entry: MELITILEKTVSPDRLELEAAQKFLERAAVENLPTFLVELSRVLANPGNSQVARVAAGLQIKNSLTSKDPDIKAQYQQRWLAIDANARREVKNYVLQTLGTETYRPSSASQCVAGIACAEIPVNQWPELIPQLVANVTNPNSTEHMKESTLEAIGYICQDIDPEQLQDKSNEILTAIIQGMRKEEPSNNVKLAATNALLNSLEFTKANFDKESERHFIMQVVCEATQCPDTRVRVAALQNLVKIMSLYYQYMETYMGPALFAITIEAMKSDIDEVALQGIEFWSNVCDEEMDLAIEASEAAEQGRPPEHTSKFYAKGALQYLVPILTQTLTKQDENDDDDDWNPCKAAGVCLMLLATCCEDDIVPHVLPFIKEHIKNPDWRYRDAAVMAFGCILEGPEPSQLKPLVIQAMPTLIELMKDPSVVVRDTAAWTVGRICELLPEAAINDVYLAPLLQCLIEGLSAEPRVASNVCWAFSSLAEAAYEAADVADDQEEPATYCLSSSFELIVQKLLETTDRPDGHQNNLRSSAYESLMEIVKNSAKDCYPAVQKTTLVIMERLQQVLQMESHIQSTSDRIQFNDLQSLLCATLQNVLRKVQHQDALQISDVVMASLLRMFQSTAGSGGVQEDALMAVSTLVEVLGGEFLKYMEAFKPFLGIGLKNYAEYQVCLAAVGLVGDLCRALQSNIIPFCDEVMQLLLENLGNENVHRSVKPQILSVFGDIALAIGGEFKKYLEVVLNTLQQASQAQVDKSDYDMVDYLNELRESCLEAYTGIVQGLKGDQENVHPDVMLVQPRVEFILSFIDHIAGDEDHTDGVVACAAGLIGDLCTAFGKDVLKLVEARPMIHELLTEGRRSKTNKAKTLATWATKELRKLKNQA

How the values were obtained:
Assay in all cases: pull-down
[1] = molecular target: T1, MBP-tagged ANI-1 (RBD + C2) K947A; K949A (C. elegans) (UniProt Q9XTT4)
T1 sequence: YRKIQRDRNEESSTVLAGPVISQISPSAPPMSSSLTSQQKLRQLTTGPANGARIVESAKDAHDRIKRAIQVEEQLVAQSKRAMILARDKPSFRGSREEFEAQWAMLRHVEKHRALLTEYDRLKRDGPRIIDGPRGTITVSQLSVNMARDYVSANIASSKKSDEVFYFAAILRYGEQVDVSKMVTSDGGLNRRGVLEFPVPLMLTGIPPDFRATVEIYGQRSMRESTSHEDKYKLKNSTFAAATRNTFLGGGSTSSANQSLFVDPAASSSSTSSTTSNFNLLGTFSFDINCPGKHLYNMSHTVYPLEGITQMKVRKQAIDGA

[2] = molecular target: T2, GST-tagged ANI-1 (RBD + C2) (C. elegans) (UniProt Q9XTT4)
T2 sequence: T1 sequence with A240K, A242K

[3] = molecular target: T3, MBP-tagged ANI-1 (RBD + C2) K938E; K940E (C. elegans) (UniProt Q9XTT4)
T3 sequence: T1 sequence with K231E, K233E, A240K, A242K

binding [1]: binds
binding [2]: binds
binding [3]: binds
Substance: Myc-tagged human importin-β (from UniProt Q14974 1-876)
